{"source": "patent EP1500700B1", "about": "“Use of a pectic acid lyase in a detergent” (KAO CORPORATION, priority 1997, dated 1998)", "key": {"[1]": {"test_system": "recombinant pectic acid lyase of Bacillus sp. KSM-P15 (rPAL, Example 8), Sequence No. 1", "test": "Effect of specific inhibitors on residual pectic acid lyase activity", "type": "biochemical", "details": "inhibitor 1 mM, 50 mM Tris-HCl buffer (pH 7.5), 30°C, one hour"}, "[2]": {"test_system": "pectic acid lyase from Bacillus sp. KSM-P15, wild type (BPAL, Example 3), Sequence No. 1", "test": "Effect of specific inhibitors on residual pectic acid lyase activity", "type": "biochemical", "details": "inhibitor 1 mM, 50 mM Tris-HCl buffer (pH 7.5), 30°C, one hour"}}, "note": "Some results were stated once for a whole list of compounds, not compound by compound."}
{"smiles": "O=C(O)c1cc(SSc2ccc([N+](=O)[O-])c(C(=O)O)c2)ccc1[N+](=O)[O-]", "note": "[5,5'-dithiobis(2-nitrobenzoic acid)]", "values": [{"measurement": "inhibition (in words)", "setting": "[1]", "value": "slightly inhibited or did not completely inhibit"}, {"measurement": "inhibition (in words)", "setting": "[2]", "value": "slightly inhibited or did not completely inhibit"}]}
